Laboratory results: PubChem BioAssay AID330 (DTP/NCI, 2004)
The list shows only some results of the screen, not a fair sample: it is rich in T/C values a quarter to a half above the control, in often repeated tests (any T/C) and in doses without a T/C. Further doses and runs are listed elsewhere. T/C: endpoint of the treated group in % of that of the vehicle group. Some entries give survivors of the animals treated and no T/C: the source files T/C as zero there, which appears to mark a toxic dose or a test without result, not a measured value. Some survivor counts are full or nearly so, which does not show that the dose was tolerated: the source hardly ever lists a survival T/C far under the control, and the zero likely stands for such cases as well. Survivors were counted at the toxicity check, usually on the fifth day, unless a day is given; later deaths do not show. Schedule codes are those of the source, taken here to give the interval after Q, in days (D) or hours (H), and the number of doses after X. Some molecules as drawn cover several salts, stereoisomers or complexes of the source; a dose is that of the sample tested. Some entries were tested several times; the values are given in rising order. For survival time, this PubChem deposit counts one and a half times the control or more as active, and values a quarter to a half above the control carry no call in these data; other NCI protocols may use other cut-offs. Some T/C values are followed by the survivors on the day toxicity was checked, most often the fifth; without a count, all were alive then.

Test system: P388 leukemia ip, CD2F1 mice, survival T/C
Experiment: NCI In Vivo Anticancer Drug Screen. Data for tumor model P388 Leukemia (intraperitoneal) in CD2F1 (CDF1) mice
Conditions: T/C endpoint: median survival time, higher T/C = longer survival
[1] = dose: 240.0 mg/kg/injection, schedule: Q01DX005 (ip), vehicle: saline
[2] = dose: 8.0 mg/kg/injection, schedule: Q01DX009 (ip), vehicle: water
[3] = dose: 100.0 mg/kg/injection, schedule: Q01DX009 (ip), vehicle: Klucel (hydroxypropylcellulose) (HPC)

**Q.** `CS(=O)(=O)Nc1cc(C(O)CNC2CC2)ccc1O` (stereo not given) was tested. Which survivor count (dose: 3.0 mg/kg/injection, schedule: Q01DX001 (ip), vehicle: saline) did it give?
**A.** 1 of 6

**Q.** What about the survivor count (dose: 6.0 mg/kg/injection, schedule: Q01DX001 (ip), vehicle: saline) of the same molecule?
**A.** 0 of 6

**Q.** And the survivor count (dose: 12.5 mg/kg/injection, schedule: Q01DX001 (ip), vehicle: saline)?
**A.** 0 of 6

**Q.** What about the survivor count (dose: 25.0 mg/kg/injection, schedule: Q01DX001 (ip), vehicle: saline) of the same molecule?
**A.** 0 of 6

**Q.** And the survivor count (dose: 50.0 mg/kg/injection, schedule: Q01DX001 (ip), vehicle: saline)?
**A.** 0 of 6

**Q.** `CCC[CH2][Sn]1([CH2]CCC)[O]CCN2CCN(CC[O]1)CC2` was tested. Which survivor count (dose: 60.0 mg/kg/injection, schedule: Q01DX005 (ip), vehicle: saline with Tween-80) did it give?
**A.** 0 of 6

**Q.** And the survivor count (dose: 120.0 mg/kg/injection, schedule: Q01DX005 (ip), vehicle: saline with Tween-80)?
**A.** 0 of 6

**Q.** And the survivor count (dose: 240.0 mg/kg/injection, schedule: Q01DX005 (ip), vehicle: saline with Tween-80)?
**A.** 0 of 6

**Q.** Which survivor count [1] does the source give for `Cc1ccc(/C=C/C(=O)C(C)(C)CN(C)CCN(C)C)cc1` here?
**A.** 0 of 6

**Q.** Which results are given for `Nc1nc([Se])c2ncn(C3OC(CO)C(O)C3O)c2n1` (stereo not given)?
**A.** T/C (dose: 1.0 mg/kg/injection, schedule: Q01DX009 (ip), vehicle: saline): 136 % of control; T/C (dose: 2.0 mg/kg/injection, schedule: Q01DX009 (ip), vehicle: saline): 138 and 142 % of control; T/C (dose: 2.0 mg/kg/injection, schedule: Q01DX009 (ip), vehicle: water): 134 and 136 % of control; T/C (dose: 3.12 mg/kg/injection, schedule: Q01DX009 (ip), vehicle: saline): 144 % of control; T/C (dose: 4.0 mg/kg/injection, schedule: Q01DX009 (ip), vehicle: saline): 145 % of control; T/C (dose: 4.0 mg/kg/injection, schedule: Q01DX009 (ip), vehicle: water): 136 and 140 % of control; T/C (dose: 8.0 mg/kg/injection, schedule: Q01DX009 (ip), vehicle: saline): 148 % of control; T/C [2]: 139 % of control; survivor count (dose: 64.0 mg/kg/injection, schedule: Q01DX009 (ip), vehicle: saline): 2 of 6

**Q.** With `COc1cccc2c1C(=O)c1c(O)c3c(c(O)c1C2=O)CC(O)(C(=O)COc1ccccc1)CC3OC1CC(NC(=O)C(F)(F)F)C(O)C(C)O1` (stereo not given) as the molecule, how does the T/C (dose: 12.5 mg/kg/injection, schedule: Q01DX009 (ip), vehicle: other) read?
**A.** 134 % of control

**Q.** And the T/C (dose: 25.0 mg/kg/injection, schedule: Q01DX009 (ip), vehicle: other)?
**A.** 132 % of control

**Q.** How did the survivor count [1] turn out when `O=P1(O)OC[C@H]2CCC[C@@H]2O1` was run?
**A.** 2 of 6

**Q.** `C(CSC1=NCCN1)CSC1=NCCN1` was tested. Which T/C (dose: 50.0 mg/kg/injection, schedule: Q01DX009 (ip), vehicle: saline) did it give?
**A.** 131 % of control

**Q.** What about the T/C (dose: 100.0 mg/kg/injection, schedule: Q01DX009 (ip), vehicle: saline) of the same molecule?
**A.** 138 and 142 % of control

**Q.** What about the survivor count (dose: 200.0 mg/kg/injection, schedule: Q01DX009 (ip), vehicle: saline) of the same molecule?
**A.** 3 of 6

**Q.** And the survivor count (dose: 400.0 mg/kg/injection, schedule: Q01DX009 (ip), vehicle: saline)?
**A.** 0 of 6

**Q.** Which survivor count (dose: 50.0 mg/kg/injection, schedule: Q01DX009 (ip), vehicle: Klucel (hydroxypropylcellulose) (HPC)) does the source give for `CCCCC([Se])=Nc1ccc(Br)cc1` here?
**A.** 1 of 6

**Q.** What about the survivor count [3] of the same molecule?
**A.** 0 of 6

**Q.** And the survivor count (dose: 200.0 mg/kg/injection, schedule: Q01DX009 (ip), vehicle: Klucel (hydroxypropylcellulose) (HPC))?
**A.** 0 of 6

**Q.** Which T/C [2] does the source give for `CCC1=CC2CN(CCc3c([nH]c4ccccc34)C(C(=O)OC)(c3cc4c(cc3OC)N(C)C3C(O)(C(=O)OC)C(OC(C)=O)C5(CC)CCCN6CCC43C65)C2)C1` (stereo not given) here?
**A.** 125 % of control

**Q.** What about the T/C (dose: 16.0 mg/kg/injection, schedule: Q01DX009 (ip), vehicle: water) of the same molecule?
**A.** 130 and 148 % of control

**Q.** And the T/C (dose: 64.0 mg/kg/injection, schedule: Q01DX001 (ip), vehicle: water)?
**A.** 127 and 132 % of control [5 of 6 alive]

**Q.** What about the survivor count (dose: 128.0 mg/kg/injection, schedule: Q01DX001 (ip), vehicle: water) of the same molecule?
**A.** 0 of 6 and 3 of 6

**Q.** What about the survivor count (dose: 256.0 mg/kg/injection, schedule: Q01DX001 (ip), vehicle: water) of the same molecule?
**A.** 0 of 6

**Q.** How did the survivor count [3] turn out when `CCn1c(=O)c2[nH]c(Cl)nc2n(C)c1=O` was run?
**A.** 3 of 6

**Q.** With `c1ccc2sc(NCCSSCCNc3nc4ccccc4s3)nc2c1` as the molecule, how does the survivor count (dose: 100.0 mg/kg/injection, schedule: Q01DX009 (ip), vehicle: other) read?
**A.** 5 of 6
